Broadly, the solubility is how much of the substance goes into solution per volume.

In the first data set the test system is Liver microsomes.
Experiment: not given
The following applies: human, 1 µM.
`CS(=O)(=O)Nc1ccc2c(c1)S(=O)(=O)N=C(C1=C(O)C3C4CCC(C4)C3N(Cc3ccc(F)cc3)C1=O)N2` (racemic; 2b): the t1/2 is > 1 h.

Test system in another data set: not listed separately
Put plainly: physchem. The following applies: buffer, pH 7.5.
With `CS(=O)(=O)Nc1ccc2c(c1)S(=O)(=O)N=C(C1=C(O)[C@H]3[C@@H]4CC[C@@H](C4)[C@H]3N(Cc3ccc(F)cc3)C1=O)N2`, the solubility was > 100 µM.

Turning to `Cc1cc(CN2C(=O)C(C3=NS(=O)(=O)c4cc(NS(C)(=O)=O)ccc4N3)=C(O)[C@@H]3[C@H]4CC[C@H](C4)[C@@H]32)ccc1F`, the solubility is > 100 µM.

For the compound `CS(=O)(=O)Nc1ccc2c(c1)S(=O)(=O)N=C(C1=C(O)C3C4CCC(C4)C3N(Cc3ccc(F)cc3)C1=O)N2` (racemic; 2a), the solubility is > 100 µM.

Regarding `CS(=O)(=O)Nc1ccc2c(c1)S(=O)(=O)N=C(C1=C(O)[C@@H]3[C@H]4CC[C@H](C4)[C@@H]3N(Cc3ccc(F)cc3)C1=O)N2` [SETROBUVIR], the solubility was > 100 µM.

`CS(=O)(=O)Nc1ccc2c(c1)S(=O)(=O)N=C(C1=C(O)[C@H]3[C@H]4CC[C@H](C4)[C@H]3N(Cc3ccc(F)cc3)C1=O)N2`: the solubility was > 100 µM.
